Test results as given in publication doi:10.1101/2023.03.07.531578.
These are yes or no findings as the source states them, for the method shown. Binding seen in cells or lysates may run through a third protein. Some binding calls cover weakened binding; strength is not graded here. For some assays here: Sequences can lack the tags named with a protein.

Experiments:
[1] = biological target: T1, CRL-GFP (35S::CRL-sGFP(S65T)) (A. thaliana) (UniProt Q9FI46); assay: co-IP
T1 sequence: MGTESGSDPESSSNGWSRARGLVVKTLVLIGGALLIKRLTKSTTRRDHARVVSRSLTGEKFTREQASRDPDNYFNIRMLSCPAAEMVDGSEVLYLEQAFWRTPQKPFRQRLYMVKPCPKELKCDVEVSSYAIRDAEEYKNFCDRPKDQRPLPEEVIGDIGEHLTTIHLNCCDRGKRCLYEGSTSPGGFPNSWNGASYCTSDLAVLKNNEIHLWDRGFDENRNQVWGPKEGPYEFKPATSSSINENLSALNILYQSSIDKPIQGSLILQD

[2] = biological target: T2, TOC75-V/OEP80 (A. thaliana (endogenous in chloroplasts of seedlings)) (UniProt Q9C5J8); assay: co-IP
T2 sequence: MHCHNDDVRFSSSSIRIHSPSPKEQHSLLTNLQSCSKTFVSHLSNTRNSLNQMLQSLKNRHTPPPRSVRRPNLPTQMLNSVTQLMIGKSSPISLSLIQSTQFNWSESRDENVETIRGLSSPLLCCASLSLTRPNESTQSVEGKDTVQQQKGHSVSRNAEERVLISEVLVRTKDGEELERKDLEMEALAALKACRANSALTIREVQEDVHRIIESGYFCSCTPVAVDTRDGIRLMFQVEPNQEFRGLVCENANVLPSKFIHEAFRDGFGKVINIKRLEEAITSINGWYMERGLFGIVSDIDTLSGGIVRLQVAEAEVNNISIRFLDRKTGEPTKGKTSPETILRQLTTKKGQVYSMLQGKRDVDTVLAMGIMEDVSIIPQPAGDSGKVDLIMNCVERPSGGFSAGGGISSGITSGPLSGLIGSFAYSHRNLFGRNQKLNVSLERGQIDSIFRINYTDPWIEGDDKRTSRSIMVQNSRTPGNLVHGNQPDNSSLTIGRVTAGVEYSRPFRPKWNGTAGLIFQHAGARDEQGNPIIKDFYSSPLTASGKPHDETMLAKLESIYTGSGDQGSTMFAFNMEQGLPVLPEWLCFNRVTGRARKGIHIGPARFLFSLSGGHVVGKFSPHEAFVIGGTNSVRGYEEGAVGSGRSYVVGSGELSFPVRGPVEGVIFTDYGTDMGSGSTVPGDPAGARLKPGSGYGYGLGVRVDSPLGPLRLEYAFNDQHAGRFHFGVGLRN

B1: TOC75-V/OEP80 (protein, UniProt Q9C5J8 1-732)
chain: T2 sequence
In the case of B1, the binding [1] is reported as “binds”.

B2: CRUMPLED LEAF (CRL) (protein, UniProt Q9FI46 1-269)
chain: T1 sequence
B2 was tested, and the binding [2] was “binds”.
